Assay results: patent US20160090556A1, “PRODUCTS COMPRISING MALODOR REDUCTION MATERIALS” (The Procter & Gamble Company, priority 2014, published 2016)
Where two headings read alike, the source gives them in different places. Some entries repeat one wording, which the source may state once for all of them.

Tests used:
[1] = Melamine formaldehyde PMC Headspace Response Ratio
[2] = Melamine formaldehyde PMC leakage; details: for Comment Code: Melamine formaldehyde PMC leakage: code letter J; for Melamine formaldehyde PMC leakage (Comment Code J): class code letter within Comment Code
[3] = class code letter within Comment Code

CC(C)(C)[C@@H]1CCCC[C@H]1O (relative stereo) [Material 1071]
Comment Code: Melamine formaldehyde PMC Headspace Response Ratio ([1]; code letter I): I (Melamine formaldehyde PMC Headspace Response Ratio greater than or equal to 10) | Comment Code: Melamine formaldehyde PMC leakage [2]: J (Melamine formaldehyde PMC leakage less than or equal to 5%)

C=C(C)[C@@H]1CC[C@@H](C)C(=O)C1 (relative stereo) [Material 1081]
Comment Code: Melamine formaldehyde PMC Headspace Response Ratio ([1]; code letter I): I (Melamine formaldehyde PMC Headspace Response Ratio greater than or equal to 10) | Comment Code: Melamine formaldehyde PMC leakage [2]: J (Melamine formaldehyde PMC leakage less than or equal to 5%)

Cc1ccc(C(C)(C)O)cc1 [Material 4]
Melamine formaldehyde PMC Headspace Response Ratio (Comment Code I) [1, 3]: I (Melamine formaldehyde PMC Headspace Response Ratio greater than or equal to 10) | Melamine formaldehyde PMC leakage (Comment Code J) [2]: J (Melamine formaldehyde PMC leakage less than or equal to 5%)

CC1(O)CCOC2(CCCCC2)C1 (centres unmarked) [Material 16]
Melamine formaldehyde PMC Headspace Response Ratio (Comment Code I) [1, 3]: I (Melamine formaldehyde PMC Headspace Response Ratio greater than or equal to 10) | Melamine formaldehyde PMC leakage (Comment Code J) [2]: J (Melamine formaldehyde PMC leakage less than or equal to 5%)

COC(C)(C)C1CC=C(C)CC1 (centres unmarked) [Material 20]
Comment Code: Melamine formaldehyde PMC Headspace Response Ratio ([1]; code letter I): I (Melamine formaldehyde PMC Headspace Response Ratio greater than or equal to 10) | Comment Code: Melamine formaldehyde PMC leakage [2]: J (Melamine formaldehyde PMC leakage less than or equal to 5%)

CCC(C)(C)C1CCC(=O)CC1 [Material 21]
Melamine formaldehyde PMC Headspace Response Ratio (Comment Code I) [1, 3]: I (Melamine formaldehyde PMC Headspace Response Ratio greater than or equal to 10) | Melamine formaldehyde PMC leakage (Comment Code J) [2]: J (Melamine formaldehyde PMC leakage less than or equal to 5%)

C=CC(C)(CCC=C(C)C)OC (centres unmarked) [Material 24]
Comment Code: Melamine formaldehyde PMC Headspace Response Ratio ([1]; code letter I): I (Melamine formaldehyde PMC Headspace Response Ratio greater than or equal to 10) | Comment Code: Melamine formaldehyde PMC leakage [2]: J (Melamine formaldehyde PMC leakage less than or equal to 5%)

CC(C)C1OC2(CCCC2)OCC1(C)C (centres unmarked) [Material 25]
Melamine formaldehyde PMC Headspace Response Ratio (Comment Code I) [1, 3]: I (Melamine formaldehyde PMC Headspace Response Ratio greater than or equal to 10) | Melamine formaldehyde PMC leakage (Comment Code J) [2]: J (Melamine formaldehyde PMC leakage less than or equal to 5%)

CC(C)CCCC(C)CC=O (centres unmarked) [Material 27]
Comment Code: Melamine formaldehyde PMC Headspace Response Ratio ([1]; code letter I): I (Melamine formaldehyde PMC Headspace Response Ratio greater than or equal to 10) | Comment Code: Melamine formaldehyde PMC leakage [2]: J (Melamine formaldehyde PMC leakage less than or equal to 5%)

C=CC(=C)CCCC(C)(C)O [Material 34]
Melamine formaldehyde PMC Headspace Response Ratio (Comment Code I) [1, 3]: I (Melamine formaldehyde PMC Headspace Response Ratio greater than or equal to 10) | Melamine formaldehyde PMC leakage (Comment Code J) [2]: J (Melamine formaldehyde PMC leakage less than or equal to 5%)

CC1=CC(C)C2C(CCC(C)(C)C2O)C1 (centres unmarked) [Material 39]
Melamine formaldehyde PMC Headspace Response Ratio (Comment Code I) [1, 3]: I (Melamine formaldehyde PMC Headspace Response Ratio greater than or equal to 10) | Comment Code: Melamine formaldehyde PMC Headspace Response Ratio ([1]; code letter I): I (Melamine formaldehyde PMC Headspace Response Ratio greater than or equal to 10) | Melamine formaldehyde PMC leakage (Comment Code J) [2]: J (Melamine formaldehyde PMC leakage less than or equal to 5%) | Comment Code: Melamine formaldehyde PMC leakage [2]: J (Melamine formaldehyde PMC leakage less than or equal to 5%)

C=CC(C)=CCCC(C)(C)O [Material 42]
Melamine formaldehyde PMC Headspace Response Ratio (Comment Code I) [1, 3]: I (Melamine formaldehyde PMC Headspace Response Ratio greater than or equal to 10) | Melamine formaldehyde PMC leakage (Comment Code J) [2]: J (Melamine formaldehyde PMC leakage less than or equal to 5%)

C=CC(C)=CCCC(C)(C)O [Material 43]
Melamine formaldehyde PMC Headspace Response Ratio (Comment Code I) [1, 3]: I (Melamine formaldehyde PMC Headspace Response Ratio greater than or equal to 10) | Melamine formaldehyde PMC leakage (Comment Code J) [2]: J (Melamine formaldehyde PMC leakage less than or equal to 5%)

CCCCCCCCCO [Material 49]
Melamine formaldehyde PMC Headspace Response Ratio (Comment Code I) [1, 3]: I (Melamine formaldehyde PMC Headspace Response Ratio greater than or equal to 10) | Melamine formaldehyde PMC leakage (Comment Code J) [2]: J (Melamine formaldehyde PMC leakage less than or equal to 5%)

CCNC(=O)C1CC(C)CCC1C(C)C (centres unmarked) [Material 57]
Melamine formaldehyde PMC Headspace Response Ratio (Comment Code I) [1, 3]: I (Melamine formaldehyde PMC Headspace Response Ratio greater than or equal to 10) | Melamine formaldehyde PMC leakage (Comment Code J) [2]: J (Melamine formaldehyde PMC leakage less than or equal to 5%)

CCC12CC3CC1C2C3OC (centres unmarked) [Material 65]
Melamine formaldehyde PMC Headspace Response Ratio (Comment Code I) [1, 3]: I (Melamine formaldehyde PMC Headspace Response Ratio greater than or equal to 10) | Melamine formaldehyde PMC leakage (Comment Code J) [2]: J (Melamine formaldehyde PMC leakage less than or equal to 5%)

COc1cc(OC)c(C=O)c(OC)c1 [Material 736]
Melamine formaldehyde PMC Headspace Response Ratio (Comment Code I) [1]: I (Melamine formaldehyde PMC Headspace Response Ratio greater than or equal to 10)

CC(=O)C(C)O (centres unmarked) [Material 760]
Comment Code: Melamine formaldehyde PMC Headspace Response Ratio ([1]; code letter I): I (Melamine formaldehyde PMC Headspace Response Ratio greater than or equal to 10)

COc1ccc(C(C)=O)cc1 [Material 761]
Comment Code: Melamine formaldehyde PMC Headspace Response Ratio ([1]; code letter I): I (Melamine formaldehyde PMC Headspace Response Ratio greater than or equal to 10)

CCCOC(C)OCCC [Material 767]
Melamine formaldehyde PMC Headspace Response Ratio (Comment Code I) [1]: I (Melamine formaldehyde PMC Headspace Response Ratio greater than or equal to 10)

Cc1ccc2ncccc2c1 [Material 777]
Comment Code: Melamine formaldehyde PMC Headspace Response Ratio ([1]; code letter I): I (Melamine formaldehyde PMC Headspace Response Ratio greater than or equal to 10)

CCC(=O)CC(C)CC (centres unmarked) [Material 784]
Comment Code: Melamine formaldehyde PMC Headspace Response Ratio ([1]; code letter I): I (Melamine formaldehyde PMC Headspace Response Ratio greater than or equal to 10)

C=Cc1ccc(O)cc1 [Material 789]
Comment Code: Melamine formaldehyde PMC Headspace Response Ratio ([1]; code letter I): I (Melamine formaldehyde PMC Headspace Response Ratio greater than or equal to 10)

C=CCCC(=O)c1ccccc1 [Material 792]
Melamine formaldehyde PMC Headspace Response Ratio (Comment Code I) [1]: I (Melamine formaldehyde PMC Headspace Response Ratio greater than or equal to 10)

CC1CCC(=O)C1=O (centres unmarked) [Material 810]
Comment Code: Melamine formaldehyde PMC Headspace Response Ratio ([1]; code letter I): I (Melamine formaldehyde PMC Headspace Response Ratio greater than or equal to 10)

COc1cc(C)cc(O)c1 [Material 811]
Comment Code: Melamine formaldehyde PMC Headspace Response Ratio ([1]; code letter I): I (Melamine formaldehyde PMC Headspace Response Ratio greater than or equal to 10)

COC(C)(C)CCO [Material 812]
Comment Code: Melamine formaldehyde PMC Headspace Response Ratio ([1]; code letter I): I (Melamine formaldehyde PMC Headspace Response Ratio greater than or equal to 10)

CCC=CCCO [Material 817]
Comment Code: Melamine formaldehyde PMC Headspace Response Ratio ([1]; code letter I): I (Melamine formaldehyde PMC Headspace Response Ratio greater than or equal to 10)

OCCOc1ccccc1 [Material 834]
Melamine formaldehyde PMC Headspace Response Ratio (Comment Code I) [1]: I (Melamine formaldehyde PMC Headspace Response Ratio greater than or equal to 10)

CCCCCC1CCCC1O (centres unmarked) [Material 836]
Comment Code: Melamine formaldehyde PMC Headspace Response Ratio ([1]; code letter I): I (Melamine formaldehyde PMC Headspace Response Ratio greater than or equal to 10)

CCCCCCCC(C)O (centres unmarked) [Material 839]
Melamine formaldehyde PMC Headspace Response Ratio (Comment Code I) [1]: I (Melamine formaldehyde PMC Headspace Response Ratio greater than or equal to 10)

CCCCCCCC(C)=O [Material 840]
Melamine formaldehyde PMC Headspace Response Ratio (Comment Code I) [1]: I (Melamine formaldehyde PMC Headspace Response Ratio greater than or equal to 10)

CCC(C)c1nccnc1OC (centres unmarked) [Material 845]
Comment Code: Melamine formaldehyde PMC Headspace Response Ratio ([1]; code letter I): I (Melamine formaldehyde PMC Headspace Response Ratio greater than or equal to 10)

CCCC=CCO [Material 851]
Comment Code: Melamine formaldehyde PMC Headspace Response Ratio ([1]; code letter I): I (Melamine formaldehyde PMC Headspace Response Ratio greater than or equal to 10)

CCC(C)C(=O)OC (centres unmarked) [Material 904]
Comment Code: Melamine formaldehyde PMC Headspace Response Ratio ([1]; code letter I): I (Melamine formaldehyde PMC Headspace Response Ratio greater than or equal to 10)

Cc1cccc(CCO)c1 [Material 928]
Melamine formaldehyde PMC Headspace Response Ratio (Comment Code I) [1]: I (Melamine formaldehyde PMC Headspace Response Ratio greater than or equal to 10)

C=C(OC(C)=O)c1ccccc1 [Material 931]
Comment Code: Melamine formaldehyde PMC Headspace Response Ratio ([1]; code letter I): I (Melamine formaldehyde PMC Headspace Response Ratio greater than or equal to 10)

OCCc1ccccc1 [Material 955]
Melamine formaldehyde PMC Headspace Response Ratio (Comment Code I) [1]: I (Melamine formaldehyde PMC Headspace Response Ratio greater than or equal to 10)

CC(O)CO (centres unmarked) [Material 993]
Melamine formaldehyde PMC Headspace Response Ratio (Comment Code I) [1]: I (Melamine formaldehyde PMC Headspace Response Ratio greater than or equal to 10)

CC(=O)CCc1ccc(O)cc1 [Material 1002]
Comment Code: Melamine formaldehyde PMC Headspace Response Ratio ([1]; code letter I): I (Melamine formaldehyde PMC Headspace Response Ratio greater than or equal to 10)

O=C1CCC2(CCCCC2)O1 [Material 1039]
Comment Code: Melamine formaldehyde PMC Headspace Response Ratio ([1]; code letter I): I (Melamine formaldehyde PMC Headspace Response Ratio greater than or equal to 10)

CC(=O)OC(C)c1ccccc1 (centres unmarked) [Material 1041]
Comment Code: Melamine formaldehyde PMC Headspace Response Ratio ([1]; code letter I): I (Melamine formaldehyde PMC Headspace Response Ratio greater than or equal to 10)

Cc1ncsc1CCO [Material 1042]
Melamine formaldehyde PMC Headspace Response Ratio (Comment Code I) [1]: I (Melamine formaldehyde PMC Headspace Response Ratio greater than or equal to 10)

CCC/C=C/CO [Material 1069]
Comment Code: Melamine formaldehyde PMC Headspace Response Ratio ([1]; code letter I): I (Melamine formaldehyde PMC Headspace Response Ratio greater than or equal to 10)

C=C/C(C)=C/CC=C(C)C [Material 1077]
Melamine formaldehyde PMC Headspace Response Ratio (Comment Code I) [1]: I (Melamine formaldehyde PMC Headspace Response Ratio greater than or equal to 10)

C=C/C(C)=C/CC=C(C)C [Material 1078]
Melamine formaldehyde PMC Headspace Response Ratio (Comment Code I) [1]: I (Melamine formaldehyde PMC Headspace Response Ratio greater than or equal to 10)

CC(C)=CCC/C(C)=C/CO [Material 1082]
Melamine formaldehyde PMC Headspace Response Ratio (Comment Code I) [1]: I (Melamine formaldehyde PMC Headspace Response Ratio greater than or equal to 10)

C/C=C/c1ccc(O)c(OC)c1 [Material 1084]
Comment Code: Melamine formaldehyde PMC Headspace Response Ratio ([1]; code letter I): I (Melamine formaldehyde PMC Headspace Response Ratio greater than or equal to 10)

COCc1ccc(O)c(OC)c1 [Material 1113]
Comment Code: Melamine formaldehyde PMC Headspace Response Ratio ([1]; code I of the Comment Code column, Table 1): I (Melamine formaldehyde PMC Headspace Response Ratio greater than or equal to 10)

COc1ccc(C=O)cc1OC [Material 1118]
Comment Code: Melamine formaldehyde PMC Headspace Response Ratio ([1]; code letter I): I (Melamine formaldehyde PMC Headspace Response Ratio greater than or equal to 10)
